Measured values reported in PMC10943805.
These are yes or no findings as the source states them, for the method shown. Binding seen in cells or lysates may run through a third protein. Some binding calls cover weakened binding; strength is not graded here.

Chains of the proteins cited; added tags and fusions are not shown.
UniProt Q2EJA0: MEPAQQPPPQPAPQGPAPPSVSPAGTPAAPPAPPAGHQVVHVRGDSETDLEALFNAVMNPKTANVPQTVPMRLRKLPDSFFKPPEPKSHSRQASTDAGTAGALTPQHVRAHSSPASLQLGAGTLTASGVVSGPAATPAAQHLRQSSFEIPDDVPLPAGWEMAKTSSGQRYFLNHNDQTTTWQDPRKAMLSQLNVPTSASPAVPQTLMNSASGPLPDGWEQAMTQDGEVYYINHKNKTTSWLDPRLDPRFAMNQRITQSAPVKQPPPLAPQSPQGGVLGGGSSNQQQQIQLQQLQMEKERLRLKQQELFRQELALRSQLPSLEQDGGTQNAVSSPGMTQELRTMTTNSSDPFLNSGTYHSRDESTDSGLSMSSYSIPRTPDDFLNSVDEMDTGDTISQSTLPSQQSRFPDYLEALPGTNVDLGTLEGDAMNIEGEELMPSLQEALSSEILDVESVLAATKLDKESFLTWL

Target: Yes-associated protein (YAP) (rat (endogenous in primary rat chondrocytes)) (UniProt Q2EJA0)
Assay: co-IP; lysate of primary rat chondrocytes (control or treated with IL-1β for 24 h; in Fig. 7I also after LIPUS) in IP lysis buffer with protease inhibitors; pre-cleared with Protein A+G magnetic beads; anti-YAP antibody overnight at 4 °C; western blot of the precipitate

## P62 (from UniProt O08623 1-439)
  binding: binds
